Results: patent US20240173352A1 (A2 BIOTHERAPEUTICS, published 2024)

Molecular target: HLA-A*02 HA-1(H) (…) pMHC on T2 cells (human)
Assay: cell-based or functional assay

B1: HA-1 Ftcr (KP7 HA-1H FTCRalpha LIR1 TICD and KP7 HA-1H FTCRbeta LIR1 TICD) (receptor)
TCR alpha: KNEVEQSPQNLTAQEGEFITINCSYSVGISALHWLQQHPGGGIVSLFMLSSGKKKHGRLIATINIQEKHSSLHITASHPRDSAVYICAVRSVSGAGSYQLTFGKGTKLSVIPNIQNPDPAVYQLRDSKSSDKSVCLFTDFDSQTNVSQSKDSDVYITDKCVLDMRSMDFKSNSAVAWSNKSDFACANAFNNSIIPEDTFFPSPESSCDVKLVEKSFETDTNLNFQNLSVVIGILVAVILLLLLLLLLFLILRHRRQGKHWTSTQRKADFQHPAGAVGPEPTDRGLQWRSSPAADAQEENLYAAVKHTQPEDGVEMDTRSPHDEDPQAVTYAEVKHSRPRREMASPPSPLSGEFLDTKDRQAEEDRQMDTEAAASEAPQDVTYAQLHSLTLRREATEPPPSQEGPSPAVPSIYATLAIH
TCR beta: DTGVSQNPRHKITKRGQNVTFRCDPISEHNRLYWYRQTLGQGPEFLTYFQNEAQLEKSRLLSDRFSAERPKGSFSTLEIQRTEQGDSAMYLCASSIDSFNEQFFGPGTRLTVLEDLKNVFPPEVAVFEPSEAEISHTQKATLVCLATGFYPDHVELSWWVNGKEVHSGVCTDPQPLKEQPALNDSRYCLSSRLRVSATFWQNPRNHFRCQVQFYGLSENDEWTQDRAKPVTQIVSAEAWGRADCGFTSESYQQGVLSVVIGILVAVILLLLLLLLLFLILRHRRQGKHWTSTQRKADFQHPAGAVGPEPTDRGLQWRSSPAADAQEENLYAAVKHTQPEDGVEMDTRSPHDEDPQAVTYAEVKHSRPRREMASPPSPLSGEFLDTKDRQAEEDRQMDTEAAASEAPQDVTYAQLHSLTLRREATEPPPSQEGPSPAVPSIYATLAIH
With B1 the “additional right shift in activity of the NY-ESO-1 TCR” value was ~10 fold, the “blocking of the KRAS TCR (shift in activity)” value was ~5 fold and the “downward shift of Emax of the KRAS TCR” value was 2.7 fold. For the same binder, the “downward shift of Emax of the NY-ESO-1 TCR” value was 1.5 fold.
